Laboratory results from the supplement of paper PMC12067093, “Discovery and optimisation of a covalent ligand for TRIM25 and its application to targeted protein ubiquitination” (Chemical Science, 2025).
The other results are listed elsewhere or left out.

Protein sequences, listed by entry. Tags and fused reporters are not part of them. Lines headed by an entry give the natural chain unless they say otherwise; changes in a name come on top.
UniProt Q5VT52: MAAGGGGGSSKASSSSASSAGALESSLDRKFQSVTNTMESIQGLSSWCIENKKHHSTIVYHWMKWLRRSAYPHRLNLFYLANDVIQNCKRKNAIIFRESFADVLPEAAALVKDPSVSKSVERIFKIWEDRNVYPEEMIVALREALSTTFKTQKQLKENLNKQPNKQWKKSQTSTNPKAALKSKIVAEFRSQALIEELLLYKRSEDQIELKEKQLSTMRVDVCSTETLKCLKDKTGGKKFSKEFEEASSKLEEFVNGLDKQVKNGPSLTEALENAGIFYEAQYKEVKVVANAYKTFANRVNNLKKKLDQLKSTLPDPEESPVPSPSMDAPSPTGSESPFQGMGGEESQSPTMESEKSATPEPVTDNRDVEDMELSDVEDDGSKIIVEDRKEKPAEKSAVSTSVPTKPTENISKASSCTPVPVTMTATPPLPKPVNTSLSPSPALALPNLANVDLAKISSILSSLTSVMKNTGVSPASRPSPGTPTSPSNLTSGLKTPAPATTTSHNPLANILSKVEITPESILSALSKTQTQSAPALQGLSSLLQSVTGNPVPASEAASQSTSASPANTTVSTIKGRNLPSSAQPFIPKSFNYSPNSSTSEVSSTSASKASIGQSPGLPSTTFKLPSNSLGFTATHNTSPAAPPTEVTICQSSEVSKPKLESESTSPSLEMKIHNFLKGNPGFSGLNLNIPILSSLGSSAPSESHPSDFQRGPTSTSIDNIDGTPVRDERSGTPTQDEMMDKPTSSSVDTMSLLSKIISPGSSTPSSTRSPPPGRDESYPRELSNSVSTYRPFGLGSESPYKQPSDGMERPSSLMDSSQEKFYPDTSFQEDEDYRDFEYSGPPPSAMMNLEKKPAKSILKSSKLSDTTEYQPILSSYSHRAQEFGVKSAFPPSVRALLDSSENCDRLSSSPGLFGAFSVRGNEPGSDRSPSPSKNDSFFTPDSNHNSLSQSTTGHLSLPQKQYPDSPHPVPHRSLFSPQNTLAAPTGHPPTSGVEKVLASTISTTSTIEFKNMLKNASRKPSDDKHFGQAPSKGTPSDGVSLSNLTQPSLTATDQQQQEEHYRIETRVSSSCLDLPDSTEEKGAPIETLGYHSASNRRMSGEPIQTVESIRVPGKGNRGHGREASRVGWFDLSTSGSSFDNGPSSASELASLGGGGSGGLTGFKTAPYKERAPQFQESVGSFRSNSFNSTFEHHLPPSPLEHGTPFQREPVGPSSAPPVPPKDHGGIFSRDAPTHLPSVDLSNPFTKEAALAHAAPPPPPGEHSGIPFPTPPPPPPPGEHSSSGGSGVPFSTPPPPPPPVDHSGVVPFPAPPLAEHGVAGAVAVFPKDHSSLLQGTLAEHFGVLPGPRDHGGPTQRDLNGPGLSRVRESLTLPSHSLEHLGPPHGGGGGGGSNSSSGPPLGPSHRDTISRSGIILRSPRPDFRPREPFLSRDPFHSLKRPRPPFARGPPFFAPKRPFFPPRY
UniProt Q9BY42: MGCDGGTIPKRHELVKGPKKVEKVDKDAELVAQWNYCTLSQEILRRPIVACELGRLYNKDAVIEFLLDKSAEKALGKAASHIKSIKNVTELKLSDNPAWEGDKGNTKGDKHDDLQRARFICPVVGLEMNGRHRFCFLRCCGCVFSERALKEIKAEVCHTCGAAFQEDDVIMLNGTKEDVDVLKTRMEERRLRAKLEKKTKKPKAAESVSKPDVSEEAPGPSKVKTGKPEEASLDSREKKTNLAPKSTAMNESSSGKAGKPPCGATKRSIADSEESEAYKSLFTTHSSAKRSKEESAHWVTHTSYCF
UniProt Q5JTH9: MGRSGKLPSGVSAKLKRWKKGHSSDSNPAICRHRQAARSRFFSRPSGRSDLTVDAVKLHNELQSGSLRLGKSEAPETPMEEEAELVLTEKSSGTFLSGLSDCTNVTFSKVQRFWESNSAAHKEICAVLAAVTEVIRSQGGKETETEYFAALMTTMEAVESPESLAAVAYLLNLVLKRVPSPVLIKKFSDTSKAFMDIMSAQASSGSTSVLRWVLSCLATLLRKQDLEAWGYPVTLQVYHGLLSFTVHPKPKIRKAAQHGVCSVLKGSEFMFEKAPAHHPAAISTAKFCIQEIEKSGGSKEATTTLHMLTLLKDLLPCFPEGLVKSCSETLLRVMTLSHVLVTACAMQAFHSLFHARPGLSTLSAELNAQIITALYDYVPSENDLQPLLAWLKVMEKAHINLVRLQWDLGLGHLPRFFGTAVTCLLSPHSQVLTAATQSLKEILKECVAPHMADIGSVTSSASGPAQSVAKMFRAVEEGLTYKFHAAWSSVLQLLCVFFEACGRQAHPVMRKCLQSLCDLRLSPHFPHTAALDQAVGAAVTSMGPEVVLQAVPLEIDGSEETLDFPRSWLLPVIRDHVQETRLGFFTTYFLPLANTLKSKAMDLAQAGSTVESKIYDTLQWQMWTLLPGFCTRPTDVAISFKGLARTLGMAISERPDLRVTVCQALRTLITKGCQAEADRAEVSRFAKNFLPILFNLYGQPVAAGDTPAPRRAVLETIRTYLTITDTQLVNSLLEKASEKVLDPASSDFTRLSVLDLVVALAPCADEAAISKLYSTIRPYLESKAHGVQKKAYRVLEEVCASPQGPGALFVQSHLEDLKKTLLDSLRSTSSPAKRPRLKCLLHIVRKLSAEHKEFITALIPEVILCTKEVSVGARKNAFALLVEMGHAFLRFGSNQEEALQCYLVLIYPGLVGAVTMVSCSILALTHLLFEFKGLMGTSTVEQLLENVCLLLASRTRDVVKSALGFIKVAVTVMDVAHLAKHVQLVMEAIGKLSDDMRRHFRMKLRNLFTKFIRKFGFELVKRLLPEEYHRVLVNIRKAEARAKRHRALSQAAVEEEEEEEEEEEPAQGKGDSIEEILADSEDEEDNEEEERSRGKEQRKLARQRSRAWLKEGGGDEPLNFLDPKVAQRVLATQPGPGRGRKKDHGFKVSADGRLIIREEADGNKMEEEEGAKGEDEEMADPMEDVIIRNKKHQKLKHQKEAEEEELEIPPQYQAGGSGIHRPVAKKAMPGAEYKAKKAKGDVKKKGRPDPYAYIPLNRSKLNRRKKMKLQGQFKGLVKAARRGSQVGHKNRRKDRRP
UniProt Q9P2E9: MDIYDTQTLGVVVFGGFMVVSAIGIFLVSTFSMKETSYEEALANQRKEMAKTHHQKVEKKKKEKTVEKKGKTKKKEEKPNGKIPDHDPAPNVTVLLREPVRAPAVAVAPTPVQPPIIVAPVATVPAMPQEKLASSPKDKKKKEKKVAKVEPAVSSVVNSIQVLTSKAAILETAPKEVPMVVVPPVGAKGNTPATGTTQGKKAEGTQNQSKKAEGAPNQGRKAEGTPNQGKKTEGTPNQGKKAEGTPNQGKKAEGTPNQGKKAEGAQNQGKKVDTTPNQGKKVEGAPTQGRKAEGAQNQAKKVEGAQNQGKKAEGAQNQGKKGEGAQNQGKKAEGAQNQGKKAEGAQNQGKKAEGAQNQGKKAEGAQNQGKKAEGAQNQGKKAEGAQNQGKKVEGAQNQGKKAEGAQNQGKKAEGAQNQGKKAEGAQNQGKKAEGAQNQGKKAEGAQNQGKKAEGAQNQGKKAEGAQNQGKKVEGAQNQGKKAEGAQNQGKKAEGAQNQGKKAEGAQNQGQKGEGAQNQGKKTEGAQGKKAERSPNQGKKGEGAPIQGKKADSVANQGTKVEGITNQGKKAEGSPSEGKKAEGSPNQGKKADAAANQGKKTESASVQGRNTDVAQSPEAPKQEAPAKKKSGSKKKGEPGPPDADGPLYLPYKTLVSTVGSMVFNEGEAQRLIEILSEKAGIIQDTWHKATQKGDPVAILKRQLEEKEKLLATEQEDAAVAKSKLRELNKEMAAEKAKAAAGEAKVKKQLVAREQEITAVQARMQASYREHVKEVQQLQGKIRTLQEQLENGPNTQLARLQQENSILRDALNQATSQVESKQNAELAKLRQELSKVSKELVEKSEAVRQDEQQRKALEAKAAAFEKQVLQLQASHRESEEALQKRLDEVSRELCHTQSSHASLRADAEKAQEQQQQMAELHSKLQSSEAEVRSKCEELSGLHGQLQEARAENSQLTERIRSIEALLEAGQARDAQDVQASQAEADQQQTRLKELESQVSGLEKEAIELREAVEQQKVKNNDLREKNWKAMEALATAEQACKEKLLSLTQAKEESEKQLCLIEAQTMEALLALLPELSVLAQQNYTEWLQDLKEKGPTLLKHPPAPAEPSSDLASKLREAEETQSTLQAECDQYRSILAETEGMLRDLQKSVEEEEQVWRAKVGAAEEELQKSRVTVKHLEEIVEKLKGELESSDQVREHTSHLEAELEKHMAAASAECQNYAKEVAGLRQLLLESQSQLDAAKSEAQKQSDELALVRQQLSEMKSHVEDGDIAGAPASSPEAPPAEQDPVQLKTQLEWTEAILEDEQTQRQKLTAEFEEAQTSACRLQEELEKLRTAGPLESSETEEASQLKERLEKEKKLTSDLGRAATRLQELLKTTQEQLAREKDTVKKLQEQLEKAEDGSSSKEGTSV
UniProt P60903, whole entry: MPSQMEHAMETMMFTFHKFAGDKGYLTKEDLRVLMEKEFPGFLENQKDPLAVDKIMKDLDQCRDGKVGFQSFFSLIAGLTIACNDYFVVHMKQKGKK
UniProt O43159: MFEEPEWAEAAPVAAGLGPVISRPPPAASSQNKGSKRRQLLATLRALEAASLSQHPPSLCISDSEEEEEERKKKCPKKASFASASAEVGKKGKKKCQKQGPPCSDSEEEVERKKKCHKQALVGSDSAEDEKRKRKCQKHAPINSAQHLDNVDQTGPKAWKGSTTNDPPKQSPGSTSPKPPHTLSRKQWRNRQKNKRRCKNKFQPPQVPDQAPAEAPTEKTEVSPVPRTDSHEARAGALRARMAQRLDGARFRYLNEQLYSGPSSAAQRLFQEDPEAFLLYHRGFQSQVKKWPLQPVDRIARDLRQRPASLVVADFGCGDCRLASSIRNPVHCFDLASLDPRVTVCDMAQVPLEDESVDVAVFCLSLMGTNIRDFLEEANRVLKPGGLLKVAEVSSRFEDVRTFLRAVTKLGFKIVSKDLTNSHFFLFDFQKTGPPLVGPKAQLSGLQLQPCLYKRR
UniProt P19793: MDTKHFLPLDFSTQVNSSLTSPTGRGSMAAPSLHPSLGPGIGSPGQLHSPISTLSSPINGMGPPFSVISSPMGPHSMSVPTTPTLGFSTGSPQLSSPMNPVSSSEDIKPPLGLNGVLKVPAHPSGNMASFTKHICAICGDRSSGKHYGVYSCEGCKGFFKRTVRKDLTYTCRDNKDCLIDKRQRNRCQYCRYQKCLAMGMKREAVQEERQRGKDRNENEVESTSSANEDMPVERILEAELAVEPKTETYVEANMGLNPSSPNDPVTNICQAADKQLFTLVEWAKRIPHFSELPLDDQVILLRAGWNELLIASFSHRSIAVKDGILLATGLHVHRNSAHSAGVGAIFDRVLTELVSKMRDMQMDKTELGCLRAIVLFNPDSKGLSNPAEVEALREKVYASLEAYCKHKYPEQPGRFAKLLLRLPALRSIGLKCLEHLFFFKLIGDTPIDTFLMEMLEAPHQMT
UniProt Q14151: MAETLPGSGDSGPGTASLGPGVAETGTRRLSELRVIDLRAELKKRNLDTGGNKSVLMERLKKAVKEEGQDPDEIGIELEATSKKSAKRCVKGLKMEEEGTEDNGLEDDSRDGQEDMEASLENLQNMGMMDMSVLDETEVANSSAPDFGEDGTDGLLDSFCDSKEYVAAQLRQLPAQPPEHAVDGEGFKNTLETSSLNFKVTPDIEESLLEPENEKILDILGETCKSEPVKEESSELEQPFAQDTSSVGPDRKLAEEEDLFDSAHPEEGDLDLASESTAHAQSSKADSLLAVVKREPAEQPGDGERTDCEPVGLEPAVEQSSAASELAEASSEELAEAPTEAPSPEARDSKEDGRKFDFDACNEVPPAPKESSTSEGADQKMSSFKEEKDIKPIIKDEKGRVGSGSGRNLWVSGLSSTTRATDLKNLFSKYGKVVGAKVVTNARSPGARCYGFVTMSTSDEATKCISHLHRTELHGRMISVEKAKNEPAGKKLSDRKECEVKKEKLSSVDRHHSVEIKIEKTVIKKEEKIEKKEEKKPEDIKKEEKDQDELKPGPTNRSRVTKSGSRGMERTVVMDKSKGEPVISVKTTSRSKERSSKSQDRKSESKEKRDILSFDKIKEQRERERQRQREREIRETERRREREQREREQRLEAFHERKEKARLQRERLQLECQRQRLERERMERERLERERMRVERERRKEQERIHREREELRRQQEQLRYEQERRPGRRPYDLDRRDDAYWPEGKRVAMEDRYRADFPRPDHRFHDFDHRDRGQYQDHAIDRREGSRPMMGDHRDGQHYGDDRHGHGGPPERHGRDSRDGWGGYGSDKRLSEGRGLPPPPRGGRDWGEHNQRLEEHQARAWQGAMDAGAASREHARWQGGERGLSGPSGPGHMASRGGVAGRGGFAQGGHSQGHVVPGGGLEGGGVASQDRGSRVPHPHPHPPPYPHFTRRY

Compound: CC1Cc2ccccc2N1C(=O)C1CCCN(C1)C(=O)CCl (mixture of isomers) [TRIM25 ligand 11 (diastereomer mixture)]
Test: probe-labelled cysteine peptide fold change vs DMSO (competition) (log2 fold change); higher = less target engagement (more negative = stronger competition)
Conditions: 50 µM; THP-1; incubation time: 4 h
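Further: competitive chemoproteomic profiling in live THP-1 cells with an iodoacetamide desthiobiotin (IA-DTB) probe, comparing probe-labelled peptide intensities in compound-treated cells against DMSO-treated controls.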

Going from “RRAGB_Q5VZM2_185_IFCLVHK (UniProt Q5VZM2)” to “RPS3A_P61247_96_NCLTNFHGMDLTR (UniProt P61247)”, the “probe-labelled cysteine peptide fold change” value falls from 0.183 to -0.0888.

Compared with “RRP1B_Q14684_286_GRDDCGTFEDTGPLLQFDYK (UniProt Q14684)”, “RPRD2_Q5VT52_903_ALLDSSENCDR (UniProt Q5VT52)” is higher in “probe-labelled cysteine peptide fold change” value: -0.23 for the first, -0.214 for the second.

Going from “RPS11_P62280_60_KCPFTGNVSIR (UniProt P62280)” to “SAMHD1_Q9Y3Z3_177_QLGGGYYVFPGASHNRFEHSLGVGYLAGCLVHALGEK (UniProt Q9Y3Z3)”, the “probe-labelled cysteine peptide fold change” value rises from -0.248 to -0.0034.

Compared with “RTFDC1_Q9BY42_121_FICPVVGLEMNGR (UniProt Q9BY42)”, “RPS3A_P61247_111_MCSMVK (UniProt P61247)” is higher in “probe-labelled cysteine peptide fold change” value: -0.0821 for the first, -0.0372 for the second.

Compared with “SACS_Q9NZJ4_2182_SDHVAACLR (UniProt Q9NZJ4)”, “RRP12_Q5JTH9_446_ECVAPHMADIGSVTSSASGPAQSVAK (UniProt Q5JTH9)” is higher in “probe-labelled cysteine peptide fold change” value: -0.108 for the first, -0.0269 for the second.

Going from “RPS15A_P62244_30_QVLIRPCSK (UniProt P62244)” to “RPS20_P60866_36_VCADLIR (UniProt P60866)”, the “probe-labelled cysteine peptide fold change” value falls from 0.244 to -0.0631.

First: RTN3_O95197-3_42_SCSSSCAVHDLIFWR (UniProt O95197)
Second: RRBP1_Q9P2E9_1128_LREAEETQSTLQAECDQYR (UniProt Q9P2E9)
The “probe-labelled cysteine peptide fold change” value of the first is lower: -0.737 for the first, -0.138 for the second.

Compared with “RPS29_P62273_39_YGLNMCR (UniProt P62273)”, “RPP40_O75818_219+235_DLQCPVLQSSELEGTPEVSCR (UniProt O75818)” is lower in “probe-labelled cysteine peptide fold change” value: -0.0278 for the first, -0.449 for the second.

First: RSPRY1_Q96DX4_399_FLNHEGYGIGDDEYSCAYDGCR (UniProt Q96DX4)
Second: RPS27A_P62979_126_ECPSDECGAGVFMASHFDR (UniProt P62979)
The “probe-labelled cysteine peptide fold change” value of the first is lower: -0.231 for the first, -0.12 for the second.

Compared with “S100A10_P60903_62_DLDQCR (UniProt P60903)”, “RRP8_O43159_451_AQLSGLQLQPCLYK (UniProt O43159)” is lower in “probe-labelled cysteine peptide fold change” value: -0.0317 for the first, -0.167 for the second.

Compared with “SAMHD1_Q9Y3Z3_177_FEHSLGVGYLAGCLVHALGEK (UniProt Q9Y3Z3)”, “RXRA_P19793_195_CLAMGMK (UniProt P19793)” is lower in “probe-labelled cysteine peptide fold change” value: 0.145 for the first, -0.0716 for the second.

First: RSL1D1_O76021_211_SGSCSAIR (UniProt O76021)
Second: SAFB2_Q14151_672_ERLQLECQR (UniProt Q14151)
The “probe-labelled cysteine peptide fold change” value of the first is higher: 0.175 for the first, -0.195 for the second.

First: RPP38_P78345_176_CVLALAFKK (UniProt P78345)
Second: RXRA_P19793_171_DLTYTCR (UniProt P19793)
The “probe-labelled cysteine peptide fold change” value of the first is lower: -0.198 for the first, 0.177 for the second.

Compared with “SAE1_Q9UBE0_214_VVFCPVK (UniProt Q9UBE0)”, “RPS20_P60866_70_KTPCGEGSK (UniProt P60866)” is lower in “probe-labelled cysteine peptide fold change” value: -0.00828 for the first, -0.055 for the second.

Compared with “RREB1_Q92766_291_DAMGRPFIQNNPSIPAGFHDLGFTDFSCR (UniProt Q92766)”, “RRS1_Q15050_52_CAGPTPEAELQALAR (UniProt Q15050)” is lower in “probe-labelled cysteine peptide fold change” value: -0.0626 for the first, -0.0899 for the second.

First: RTFDC1_Q9BY42_3_GCDGGTIPK (UniProt Q9BY42)
Second: RPS12_P25398_69_LVEALCAEHQINLIK (UniProt P25398)
The “probe-labelled cysteine peptide fold change” value of the first is lower: -0.16 for the first, -0.0276 for the second.

Going from “RPS17_P08708_35_VCEEIAIIPSK (UniProt P08708)” to “RRP9_O43818_296+297_ECCVTAGGR (UniProt O43818)”, the “probe-labelled cysteine peptide fold change” value rises from -0.0597 to 0.0552.

Compared with “RRP12_Q5JTH9_673_GCQAEADR (UniProt Q5JTH9)”, “RPS6_P62753_100_GCIVDANLSVLNLVIVK (UniProt P62753)” is lower in “probe-labelled cysteine peptide fold change” value: -0.141 for the first, -0.183 for the second.

First: RRAGA_Q7L523_157_LSRPLECACFR (UniProt Q7L523)
Second: RRM1_P23921_787_NTAAMVCSLENRDECLMCGS (UniProt P23921)
The “probe-labelled cysteine peptide fold change” value of the first is higher: 0.181 for the first, -0.3 for the second.
